For some assays here: Weaker means in comparison with the reference protein, sequence or condition of that experiment. Protein sequences can lack the tags named with them.
What was measured:
[1] = system: T1, BsmI methylase M1 (Bacillus stearothermophilus); test: activity in cells; settings: M1 expressed from pBR322; plasmid only partially resistant to BsmI digestion; protein in cells; only the site is given
T1 sequence: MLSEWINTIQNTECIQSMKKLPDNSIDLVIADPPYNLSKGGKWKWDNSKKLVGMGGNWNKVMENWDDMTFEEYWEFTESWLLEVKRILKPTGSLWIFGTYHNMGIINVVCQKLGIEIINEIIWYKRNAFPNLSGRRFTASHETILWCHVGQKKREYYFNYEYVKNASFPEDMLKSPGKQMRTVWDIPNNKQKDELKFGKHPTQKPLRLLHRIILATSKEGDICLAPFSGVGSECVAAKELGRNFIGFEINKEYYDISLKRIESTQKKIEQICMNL

[2] = system: T2, BsmI methylase M2 (Bacillus stearothermophilus); test: activity in cells; settings: M2 expressed from pBR322; isolate #9 resistant to BsmI; M1 and M2 together fully resistant; protein in cells; only the site is given
T2 sequence: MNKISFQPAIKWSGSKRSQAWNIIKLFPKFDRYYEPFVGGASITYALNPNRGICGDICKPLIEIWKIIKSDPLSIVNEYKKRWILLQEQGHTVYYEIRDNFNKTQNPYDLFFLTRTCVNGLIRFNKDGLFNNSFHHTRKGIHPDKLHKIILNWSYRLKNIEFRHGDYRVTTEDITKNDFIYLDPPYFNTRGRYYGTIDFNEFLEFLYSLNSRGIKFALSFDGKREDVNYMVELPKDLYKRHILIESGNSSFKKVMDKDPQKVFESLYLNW

For “GAATGC (double strand) [BsmI recognition site (in pBR322-derived expression plasmid)]”, the “activity on this sequence” value [1] was “less active” and the “activity on this sequence” value [2] was “active”.

— patent publication US6335190
